The text below walks through data of paper PMC6921592.

Chains of the proteins cited; added tags and fusions are not shown.
UniProt P70351: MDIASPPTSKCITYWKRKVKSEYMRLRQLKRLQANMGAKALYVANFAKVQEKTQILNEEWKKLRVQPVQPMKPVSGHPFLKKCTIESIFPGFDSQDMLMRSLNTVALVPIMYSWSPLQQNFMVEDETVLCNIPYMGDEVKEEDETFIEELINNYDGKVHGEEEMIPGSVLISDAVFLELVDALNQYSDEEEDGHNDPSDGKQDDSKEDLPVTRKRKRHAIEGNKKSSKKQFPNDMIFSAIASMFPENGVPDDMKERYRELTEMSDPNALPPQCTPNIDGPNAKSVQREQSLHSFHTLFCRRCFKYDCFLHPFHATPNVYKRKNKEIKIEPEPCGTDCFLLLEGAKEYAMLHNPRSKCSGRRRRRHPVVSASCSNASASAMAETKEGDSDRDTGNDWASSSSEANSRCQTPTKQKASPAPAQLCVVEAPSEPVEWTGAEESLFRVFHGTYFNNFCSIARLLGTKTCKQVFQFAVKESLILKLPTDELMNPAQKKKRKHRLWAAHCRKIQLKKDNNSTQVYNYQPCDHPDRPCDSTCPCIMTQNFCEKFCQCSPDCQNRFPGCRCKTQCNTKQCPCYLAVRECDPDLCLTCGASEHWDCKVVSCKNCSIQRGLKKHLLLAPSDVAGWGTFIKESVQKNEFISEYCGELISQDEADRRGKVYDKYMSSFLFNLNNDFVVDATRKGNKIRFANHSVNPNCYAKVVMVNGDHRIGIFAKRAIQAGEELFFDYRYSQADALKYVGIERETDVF
UniProt Q9Z1B8: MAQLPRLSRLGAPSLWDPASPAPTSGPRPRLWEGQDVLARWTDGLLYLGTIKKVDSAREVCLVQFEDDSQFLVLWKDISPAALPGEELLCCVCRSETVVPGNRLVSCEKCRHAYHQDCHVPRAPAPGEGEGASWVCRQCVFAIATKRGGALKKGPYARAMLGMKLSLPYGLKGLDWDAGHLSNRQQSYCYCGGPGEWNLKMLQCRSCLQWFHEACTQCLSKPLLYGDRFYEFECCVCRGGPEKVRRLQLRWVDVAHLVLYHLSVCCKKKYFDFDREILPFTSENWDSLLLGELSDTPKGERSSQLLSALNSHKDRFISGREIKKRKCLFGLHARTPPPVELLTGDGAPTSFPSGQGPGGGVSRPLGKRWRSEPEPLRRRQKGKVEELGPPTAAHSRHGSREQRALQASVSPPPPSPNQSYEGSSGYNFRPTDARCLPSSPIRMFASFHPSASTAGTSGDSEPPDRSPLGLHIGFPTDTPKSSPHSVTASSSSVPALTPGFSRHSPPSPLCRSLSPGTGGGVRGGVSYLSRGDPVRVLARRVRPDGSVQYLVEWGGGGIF

Results are given in words; binding and its absence hold for the method and conditions named. In cells and extracts the contact can be indirect. A yes stands for co-enrichment or nearness to the bait. Other partners may have been found.

This experiment addresses Ezh1α-FLAG-HA (UniProt P70351). In words: affinity purification with mass spectrometry; tandem affinity purification (Flag, then HA) of Ezh1α-FH from nuclear extracts of C2C12 myotubes under normal condition; wild-type C2C12 as mock; LC-MS.

Take PHF1 (from UniProt Q9Z1B8 1-559): the binding entry is recorded as “binds”.
